{"source": "PubChem BioAssay AID504834", "about": "(National Center for Advancing Translational Sciences (NCATS), 2011)", "note": "Several values for one entry are separate records, joined by “and”; a condition that tells them apart may be missing. Identical values can stand only once. The campaign covered roughly 320,000 compounds. About 22,000 (6.9%) were called active. The shares of active, inactive and inconclusive entries below differ from those in the screen. The call rests on the fitted dose curve; in most records, active means well fitted inhibition curve with a large enough effect; inconclusive means small, poorly fitted or top-dose-only effect, or another doubt; inactive means no such curve, though single readings can be large or run the other way. Potencies beside an inconclusive call are fits to weak or partial responses and may not hold up. Potency means the concentration at half of the fitted maximal effect.", "data": [{"test": "Primary qHTS for delayed death inhibitors of the malarial parasite plastid, 96 hour incubation", "conditions": "P. falciparum luciferase reporter growth; series mostly up to 28.7 µM", "summary_of_the_method": "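Two parasite generations (96 h, 37 C, 5% CO2) of compound exposure in infected erythrocytes (0.05% parasitemia, 2% hematocrit). Luciferase-reporter P. falciparum; decreased luminescence indicates inhibited growth, aimed at apicoplast-acting delayed death.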", "values": [{"smiles": "COc1cc(/C=N/NC(=O)c2ccc(O)cc2)ccc1Oc1ccc([N+](=O)[O-])cn1", "Potency": "inconclusive: 18.5 µM [inhibitor, single point]"}, {"smiles": "COc1cc(SC)ccc1C(=O)N1CCN(Cc2ccccc2)CC1", "Potency": "inactive"}, {"smiles": "Cc1nc2c(S(=O)(=O)c3ccccc3)cnn2c(C)c1C", "Potency": "inactive"}, {"smiles": "S=C(NCc1ccccc1)NC1CCSc2ccccc21", "note": "(configuration not stated)", "Potency": "inconclusive: 11.7 µM [inhibitor, single point]"}, {"smiles": "COCCN(C(=O)Cc1cccs1)C(C(=O)NCc1ccc(OC)cc1)c1ccccc1", "note": "(configuration not stated)", "Potency": "inconclusive: 13.1 µM [inhibitor, partial curve, poor fit]"}, {"smiles": "CC(=O)c1ccc(NC(=O)c2noc(C(C)C)c2[N+](=O)[O-])cc1", "Potency": "inactive"}, {"smiles": "CN(C)c1ccc(/C=C/c2ccc3c4ccccc4ccc3[n+]2-c2ccccc2)cc1", "Potency": "inconclusive: 0.294 µM [inhibitor, full curve, poor fit]"}, {"smiles": "Cc1ccc(Cn2nnc3c(=O)n(CC(=O)c4ccccc4)cnc32)cc1", "Potency": "inactive"}, {"smiles": "COC(=O)CN(c1nc(C)cc(OC)n1)S(=O)(=O)c1ccc(C)cc1", "Potency": "inconclusive: 18.5 µM [inhibitor, single point]"}, {"smiles": "CC1CCN(c2c(NCc3ccc(C(=O)N4CCc5ccccc54)cc3)c(=O)c2=O)CC1", "Potency": "inactive"}, {"smiles": "Cc1ccc2cc(CN(Cc3ccco3)C(=S)NCC3CCCO3)c(=O)[nH]c2c1", "note": "(configuration not stated)", "Potency": "active: 3.7 µM"}, {"smiles": "CCc1nnc(NC(=O)CN2CCN(Cc3cccc(Cl)c3)CC2)s1", "Potency": "inconclusive: 11.7 µM [inhibitor, single point]"}, {"smiles": "CCC1(C)N(O)C(C)(C)C(c2ccc(OC)cc2)=[N+]1[O-]", "note": "(configuration not stated)", "Potency": "inconclusive: 16.5 µM [inhibitor, single point]"}, {"smiles": "CCN(CC)S(=O)(=O)c1cc(C(=O)Oc2ccccc2OC)ccc1OC", "Potency": "inconclusive: 4.15 µM [inhibitor, single point]"}, {"smiles": "COc1ccc(N=C2S/C(=C\\c3ccc(OC(C)C(=O)O)c(OC)c3)C(=O)N2CCc2c[nH]c3ccccc23)cc1", "note": "(configuration not stated)", "Potency": "active: 1.65 µM"}, {"smiles": "COC(=O)c1sccc1-c1ccc(/C=N/OC(=O)c2cccs2)o1", "Potency": "inactive"}, {"smiles": "Fc1cccc(-n2ncc(-c3nnnn3-c3ccccc3)c2C(F)(F)F)c1", "Potency": "inconclusive: 18.5 µM [inhibitor, single point]"}, {"smiles": "CC(=O)Nc1ccc(NC(=O)CCCSc2nc3ccccc3[nH]2)cc1", "Potency": "inactive"}, {"smiles": "CN(c1cccc(NC(=O)CN(c2ccc(C34CC5CC(CC(C5)C3)C4)cc2)S(C)(=O)=O)c1)S(C)(=O)=O", "Potency": "active: 16.5 µM"}, {"smiles": "CC(=NCCN1CCN(C(=S)Nc2ccccc2)CC1)C1=C(O)CC(C)(C)CC1=O", "Potency": "inconclusive: 9.28 µM [inhibitor, single point]"}, {"smiles": "CC(C)OCCCNC(=O)c1ccc(NC(=O)C2CCCO2)cc1", "note": "(configuration not stated)", "Potency": "inconclusive: 9.28 µM [inhibitor, single point]"}, {"smiles": "O=C1CC2(CCCC2)CC(=O)N1c1ccccc1", "Potency": "active: 11.7 µM"}, {"smiles": "c1csc(CNc2ncnc3ccc(-c4ccc5c(c4)OCO5)cc23)c1", "Potency": "inconclusive: 18.5 µM [inhibitor, single point] and inconclusive: 14.7 µM [inhibitor, single point]"}, {"smiles": "CCOC(=O)N1CCN(c2ncnc3scc(-c4ccc(Cl)cc4)c23)CC1", "Potency": "inconclusive: 2.08 µM [inhibitor, partial curve]"}, {"smiles": "COc1ccccc1NC(=O)c1cc(N2C(=O)C3C4CCC(C4)C3C2=O)ccc1Cl", "note": "(configuration not stated)", "Potency": "inconclusive: 11.7 µM [inhibitor, partial curve]"}, {"smiles": "CCC(=O)N1CC2(CC(c3cccc(NC(=O)COc4ccc(Cl)cc4)c3)=NO2)C[C@@H]1C(N)=O", "note": "(some centres not stated)", "Potency": "inconclusive: 18.5 µM [inhibitor, single point]"}, {"smiles": "CC(=O)Nc1ccc(NC(=O)C(C)OC(=O)CNS(=O)(=O)/C=C/c2ccc(C)cc2)cc1", "note": "(configuration not stated)", "Potency": "inactive"}, {"smiles": "CCn1c(=O)c(C(=O)NNS(=O)(=O)c2ccc(Br)cc2)c(O)c2ccccc21", "Potency": "inactive"}, {"smiles": "Cc1nnc(N/N=C/c2cccc(OCc3ccc(Cl)c(Cl)c3)c2)n1N", "Potency": "inconclusive: 16.5 µM [inhibitor, single point]"}, {"smiles": "O=C(O)/C=C/S(=O)(=O)c1ccc2ccccc2c1", "Potency": "inactive"}, {"smiles": "CCOc1ccc(-n2c(C)cc(C(=O)CCl)c2C)cc1", "Potency": "inconclusive: 0.262 µM [inhibitor, full curve, poor fit]"}, {"smiles": "CN(C)/C=C(\\C=O)c1onc(-c2ccccc2Cl)c1C#N", "Potency": "inconclusive: 0.037 µM [inhibitor, full curve, poor fit]"}, {"smiles": "Nn1c(Cc2cccc3ccccc23)nnc1SCc1c(Cl)cccc1Cl", "Potency": "inconclusive: 9.28 µM [inhibitor, single point]"}, {"smiles": "Cc1cc(C(=O)N/N=C/c2cc(Br)ccc2OC(=O)c2ccccc2)n[nH]1", "Potency": "inconclusive: 0.117 µM [inhibitor, full curve, poor fit]"}, {"smiles": "O=C(NCCCNC(=O)c1ccccn1)c1cccc(F)c1", "Potency": "inactive"}, {"smiles": "COC(=O)c1cc(OC)c(OC)cc1NC(=O)CSc1ccccc1", "Potency": "inconclusive: 9.28 µM [inhibitor, partial curve, poor fit]"}, {"smiles": "Cc1ccc(N(CC(=O)NCc2ccccc2)C(=O)CCC(=O)Nc2nccs2)cc1", "Potency": "inactive"}, {"smiles": "CCN(CC)C(=O)Oc1ccc2ccccc2c1Cl", "Potency": "inconclusive: 5.22 µM [inhibitor, partial curve, poor fit]"}, {"smiles": "N#Cc1cc(Oc2cccc3cccnc23)c(-n2nnc3ccccc32)cc1C#N", "Potency": "inactive"}, {"smiles": "O=C(O)CCC(=O)N1CCc2cc(S(=O)(=O)N3CCCCC3)ccc21", "Potency": "inconclusive: 0.0037 µM [inhibitor, full curve, poor fit]"}, {"smiles": "Clc1ccccc1OCCCCn1ccnc1", "Potency": "inconclusive: 18.5 µM [inhibitor, single point]"}, {"smiles": "CC1(C)C2CCC1(C)C(OC(=O)CSc1nc(N)cc(=O)[nH]1)C2", "note": "(configuration not stated)", "Potency": "inconclusive: 18.5 µM [inhibitor, single point]"}, {"smiles": "CCn1c2ccccc2c2cc(C3C(C#N)=C(N)Oc4n[nH]c(COC)c43)ccc21", "note": "(configuration not stated)", "Potency": "inactive"}, {"smiles": "Cc1ccc(N/N=C(\\C#N)C(=N)N2CCCCCC2)cc1", "Potency": "inconclusive: 10.4 µM [inhibitor, single point]"}, {"smiles": "COCCNC(=O)c1ccccc1NC(=O)c1cccc([N+](=O)[O-])c1C", "Potency": "inconclusive: 13.1 µM [inhibitor, single point]"}, {"smiles": "CCCOc1ccc(N2C(=O)CC(N(CCc3ccc(OC)c(OC)c3)C(=S)Nc3ccccc3)C2=O)cc1", "note": "(configuration not stated)", "Potency": "inconclusive: 2.62 µM [inhibitor, full curve, poor fit]"}, {"smiles": "N#CC1=C(N)Oc2c(O)cc3ccccc3c2C1c1ccsc1", "note": "(configuration not stated)", "Potency": "inconclusive: 18.5 µM [inhibitor, single point]"}, {"smiles": "CC(C)c1ccc(/C=N/NC(=O)c2cccc(S(=O)(=O)N3CCOCC3)c2)cc1", "Potency": "inactive"}, {"smiles": "COCCNC(=S)N1CCc2cc(OC)c(OC)cc2C1COc1cc(C)cc(C)c1", "note": "(configuration not stated)", "Potency": "inconclusive: 13.1 µM [inhibitor, partial curve, poor fit]"}, {"smiles": "Cc1sc2nc3ccc(NCc4ccco4)nn3c(=O)c2c1C", "Potency": "inactive"}, {"smiles": "CCc1ccccc1N(CC(=O)NC(C)(C)CC)C(=O)CCC(=O)Nc1nccs1", "Potency": "inconclusive: 2.33 µM [inhibitor, partial curve, poor fit]"}, {"smiles": "O=C(CSc1nnnn1-c1cccc(F)c1)NC1CCCCC1", "Potency": "inactive"}, {"smiles": "Cc1cc(O)c(C=Nc2ccc(N3CCOCC3)cc2)c(C)c1Cl", "Potency": "inconclusive: 18.5 µM [inhibitor, single point]"}, {"smiles": "Cn1c(=O)c2c(nc(N3CCCCC3)n2C)n(C)c1=O", "Potency": "inactive"}, {"smiles": "CC(=O)N1CC(C)Sc2ccc(S(=O)(=O)NC3CCCCC3)cc21", "note": "(configuration not stated)", "Potency": "inconclusive: 18.5 µM [inhibitor, single point]"}, {"smiles": "COc1ccc(OC)c2c1cc(C(=O)N[C@H](C(=O)N1CCC[C@H]1C(=O)O)C(C)C)n2C", "Potency": "inconclusive: 6.57 µM [inhibitor, partial curve, poor fit]"}, {"smiles": "Cc1ccc(NC(=O)c2ccc(Cl)c(NC(=O)c3cccs3)c2)cc1", "Potency": "inconclusive: 18.5 µM [inhibitor, single point]"}, {"smiles": "NC(=S)N/N=C/c1ccccc1OC(=O)c1cc2ccccc2oc1=O", "Potency": "active: 0.586 µM"}, {"smiles": "COc1ccc2cc(S(=O)(=O)N3CCN(C)CC3)ccc2c1", "Potency": "inconclusive: 0.329 µM [inhibitor, partial curve, poor fit]"}, {"smiles": "Cc1ccccc1CS(=O)(=O)CC(O)CN1CCCC1=O", "note": "(configuration not stated)", "Potency": "inactive"}, {"smiles": "CN(C)P1(N(C)C)=NC(C(F)(F)F)=NC(C(F)(F)F)=N1", "Potency": "inconclusive: 13.1 µM [inhibitor, partial curve, poor fit]"}, {"smiles": "O=C(NCCN1CCOCC1)c1ccc2c(c1)N(Cc1ccccc1F)C(=O)c1ccccc1S2", "Potency": "inconclusive: 10.4 µM [inhibitor, single point]"}, {"smiles": "Cc1nn(Cc2ccccc2Cl)c(C)c1NC(=O)CCCn1nc(C)c([N+](=O)[O-])c1C", "Potency": "inconclusive: 0.0738 µM [inhibitor, full curve, poor fit]"}, {"smiles": "COc1ccc(Nc2cc(=O)oc3ccccc23)cc1", "Potency": "active: 2.62 µM"}, {"smiles": "CC1CC(C)CN(S(=O)(=O)c2ccc(Oc3ccc([N+](=O)[O-])cc3)cc2)C1", "note": "(configuration not stated)", "Potency": "inconclusive: 11.7 µM [inhibitor, partial curve, poor fit]"}, {"smiles": "CCC(=O)NC(c1ccccc1)c1c(O)ccc2ccccc12", "note": "(configuration not stated)", "Potency": "inconclusive: 9.28 µM [inhibitor, partial curve]"}, {"smiles": "COc1ccc(C2c3[nH]c4ccccc4c3C[C@H]3C(=O)N(CC(C)C)CC(=O)N23)c(OC)c1", "note": "(some centres not stated)", "Potency": "inconclusive: 8.28 µM [inhibitor, partial curve]"}]}]}
